Literature values in patent publication US20250207201A1, “SYSTEM, METHOD, AND COMPUTER READABLE MEDIUM FOR DIAGNOSING AN INDIVIDUAL'S PERSONAL SALT INDEX” (University of Virginia Patent Foundation, priority 2023, published 2025).
At least one compound was matched to its structure with a doubt left.

Details: salt-sensitive vs salt resistant hypertension; Gilbert et al., 2013, J. Hypertension

SMILES: CC(C)OC(=O)C(C)(C)Oc1ccc(C(=O)c2ccc(Cl)cc2)cc1 [fenofibrate]
- effect on blood pressure: lower blood pressure in salt-sensitive but not salt resistant hypertension
